Several values for one entry are separate records, joined by “and”; a condition that tells them apart may be missing. Identical values can stand only once. The whole screen tested about 400,000 compounds, of which about 13,000 (3.2%) were called active. This list was built around the results that the source calls inconclusive (neither active nor inactive); the mix of calls is not that of the screen. The call rests on the fitted dose curve; in most records, active means well fitted cell-killing curve with a large enough effect; inconclusive means small, poorly fitted or top-dose-only effect, or effect the other way; inactive means flat fitted curve, though single readings scatter. A potency beside an inconclusive call is a rough fit, not a confirmed value.
Assay: qHTS assay for MDR1-selective chemotherapeutics: Primary screen using the drug-selected MDR subline cells KB-V1; further: nearly all actives have a fitted effect of over 60% in size
Settings: KB-V1 MDR cells viability, CellTiter-Glo, 72 h; activity change, negative = cytotoxicity: at 46.1 µM (top of the series)
Method in brief: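 KB-V1 cells (P-gp-expressing MDR subline of KB-3-1) in phenol-red-free DMEM with 10% FBS were exposed to library compounds over a concentration series for 72 h at 37 degrees C. Viability read by CellTiter-Glo luminescence; concentration-effect curves fitted after normalization.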
On the % scale 0 is the no-effect control and ±100 the full control effect; potency means the concentration at half of the fitted maximal effect.

Row | SMILES | Potency | activity change, negative = cytotoxicity
1 | CCC(=O)/C=C1\Sc2ccc(OC)cc2N1CC | active: 14.6 µM | 
2 | CCOC(=O)N1CCN(C(=O)c2ccc(NC(=O)c3ccc(C)cc3)cc2)CC1 | inconclusive: 5.8 µM [cytotoxic, partial curve] | 
3 | Cc1ccc2nc(-c3ccc4c(c3)OCCO4)cn2c1 | inconclusive: 0.517 µM [cytotoxic, full curve, poor fit] | 
4 | O=C(CS(=O)c1cccc(C(F)(F)F)c1)Nc1ccccc1Cl (centres undefined) | inconclusive: 18.4 µM [cytotoxic, single point] | 
5 | COc1ccccc1OCCOCCOc1c(C)cc(C)cc1Br | inconclusive: 20.6 µM [cytotoxic, single point] | 
6 | CCOC(=O)c1oc2ccc(OC)cc2c1NC(=O)CN1CCN(C)CC1 | inconclusive: 1.16 µM [cytotoxic, full curve, poor fit] | 
7 | Cn1c(CN2CCOCC2)nc2cc(NC(=O)c3ccccc3[N+](=O)[O-])ccc21 | inconclusive: 9.2 µM [rising, partial curve, poor fit] | 
8 | CCN(CC)C(=O)c1ccc2c3c(cccc13)C(=O)N(CCc1ccc(OC)c(OC)c1)C2=O | active: 7.31 µM | 
9 | CCN(CC)C(=O)CSc1nc2c(sc(=S)n2Cc2ccco2)c(=O)n1-c1ccccc1 | active: 8.2 µM | 
10 | O=C(CNC(=O)C12CC3CC(CC(C3)C1)C2)Nc1ncccc1O | inconclusive: 29.1 µM [cytotoxic, single point] | 
11 | COc1ccc(Cc2noc(CN3CCCC(C(=O)c4cccs4)C3)n2)cc1OC (centres undefined) | inconclusive: 20.6 µM [cytotoxic, single point] | 
12 | O=C(Nc1ccc(Cl)c(S(=O)(=O)N2CCCC2)c1)c1cc(=O)[nH]c2ccccc12 | inconclusive: 29.1 µM [rising, single point] | 
13 | O=C(NCCCN1CCN(c2ccc(F)cc2)CC1)Nc1ccccc1Cl | inactive | 
14 | CN(Cc1ccccc1)C(=O)[C@@H]1CCCN1S(=O)(=O)c1ccc(Cl)cc1 |  | inconclusive: -2.69%
15 | O=C(N/C(=C/c1ccco1)C(=O)N1CCc2ccccc21)c1ccco1 | inconclusive: 29.1 µM [cytotoxic, single point] | 
16 | C=CCCC(=O)N1CCCC(C(=O)c2cccc(OC)c2)C1 (centres undefined) | inconclusive: 29.1 µM [cytotoxic, single point] | 
17 | COc1ccc(-n2c(C)nnc2SCC(=O)Nc2ccccc2F)cc1 | inactive | 
18 | COc1cc(OC)c(NC(=O)c2ccc(-n3cnc4cccnc43)cc2)cc1Cl | inactive | 
19 | Cc1cccc(Oc2ccc(NC(=O)C3CC=CCC3C(=O)O)cc2)c1 (centres undefined) | inconclusive: 16.4 µM [cytotoxic, single point] | 
20 | COc1ccc(-c2nc3cnccn3c2NC2CCCCC2)cc1-c1cccc(Cl)c1 | active: 14.6 µM and inconclusive: 29.1 µM [cytotoxic, single point] | 
21 | O=C(NCCc1c[nH]c2ccccc12)/C(=C\c1ccco1)NC(=O)c1ccco1 | inconclusive: 20.6 µM [cytotoxic, partial curve, poor fit] | 
22 | COc1ccc([C@H]2C[C@H](O)[C@@H](n3cc(COC(=O)c4ccccc4)nn3)CN2Cc2cccs2)cc1 | inconclusive: 20.6 µM [cytotoxic, single point] | 
23 | CCOc1cc(N2CCOCC2)c(OCC)cc1NC(=O)COc1ncnc2ccccc12 | active: 16.4 µM | 

Row | SMILES | Potency | activity change, negative = cytotoxicity
24 | O=C(/C(=N\Nc1ccccc1)Sc1nnnn1-c1ccccc1)c1ccccc1 | inconclusive: 18.4 µM [cytotoxic, single point] | 
25 | COc1ccc(OC)c(S(=O)(=O)Nc2cc3c4c(c2)C(C)C(=O)N4CCC3)c1 (centres undefined) | inconclusive: 11.6 µM [cytotoxic, partial curve, poor fit] | 
26 | COC(=O)c1ccccc1NC(=O)Cn1cnc2cc(C)c(C)cc21 | inconclusive: 20.6 µM [cytotoxic, single point] | 
27 | Cc1ccc(-n2nnnc2SCC(=O)N2Cc3ccccc3CC2C(=O)O)cc1 (centres undefined) | inconclusive: 20.6 µM [rising, single point] | 
28 | Cc1ccccc1-c1nc2c(=O)n(C)c(=O)nc-2n(C)n1 | inconclusive: 23.1 µM [cytotoxic, partial curve, poor fit] | 
29 | CCn1ccnc1CNC(=O)c1cc(COc2ccc(F)cc2F)on1 | inconclusive: 29.1 µM [cytotoxic, single point] | 
30 | Cc1ccccc1-c1noc(-c2ccc(NCc3cccnc3)c([N+](=O)[O-])c2)n1 | inactive | 
31 | Cc1ccc(CNC(=O)c2c(-c3ccccc3)noc2C)cc1 | inactive | 
32 | CC(C)n1c(CNC(=O)c2ccccc2F)nnc1SCC(=O)c1ccc(F)cc1 | inactive | 
33 | CC1=C(c2ccc(C(C)C)cc2)S(=O)(=O)N=C1N1CCC(C(=O)NCc2ccc(C)o2)CC1 | inactive | 
34 | COCCN(C(=O)COC(=O)CCOc1ccccc1)c1c(N)n(Cc2ccccc2)c(=O)[nH]c1=O |  | inconclusive: 8.56%
35 | Cc1c(CC(=O)NCC(=O)O)c(=O)oc2cc3occ(-c4ccccc4)c3cc12 | inconclusive: 23.1 µM [rising, single point] | 
36 | CN(Cc1c(C(=O)N/N=C/c2ccc(F)cc2)nnn1-c1nonc1N)C1CCCCC1 | inactive | 
37 | Cc1cccc2nc(CSc3nc4ccc([N+](=O)[O-])cc4[nH]3)c(Br)n12 | active: 11.6 µM | 
38 | Cc1cc(C)c2c(NC(=O)c3ccccc3Cl)c(C(=O)NCc3ccc(Cl)cc3)sc2n1 | inconclusive: 20.6 µM [cytotoxic, partial curve] | 
39 | O=C(O)c1ccccc1C=NN1CCCCCC1 | inactive | 
40 | CCCn1c(=O)c(Cc2ccccc2)c(O)c2ccccc21 | inconclusive: 29.1 µM [cytotoxic, single point] | 
41 | O=C(COc1ccccc1-c1nc(-c2ccccc2)no1)Nc1ccc([N+](=O)[O-])cc1 | inactive | 
42 | O=C(CN1C(=O)c2ccc([N+](=O)[O-])cc2C1=O)Nc1ccccc1N1CCCC1 | inactive | 
43 | CCOC(=O)c1c(N)n(-c2ccc(OCC)cc2)c2nc3ccccc3nc12 | inactive | 
44 | CC(=O)c1cccc(NC(=O)Cn2ccn3nc(-c4ccccc4)cc3c2=O)c1 | inactive | 
45 | COc1ccc(OCCCn2c(C3CC(=O)N(c4ccc(F)cc4)C3)nc3ccccc32)cc1 (centres undefined) |  | inconclusive: -49.9%
46 | COC(=O)c1c(C)[nH]c(C(=O)COC(=O)CCc2ccc(OC)c(OC)c2)c1C | inconclusive: 4.11 µM [cytotoxic, partial curve, poor fit] | 

Row | SMILES | Potency | activity change, negative = cytotoxicity
47 | COc1ccc(C(=O)C2CCCN(C(=O)COc3ccc(C(C)=O)cc3)C2)cc1F (centres undefined) | inconclusive: 8.2 µM [cytotoxic, partial curve] | 
48 | COCCNC(=O)CSc1nnc(-c2ccc(C)cc2)c(-c2ccc(C)cc2)n1 | inconclusive: 16.4 µM [cytotoxic, partial curve] | 
49 | Cc1cc(C)n(-c2ccc(Cl)c(Cl)c2)n1 | inactive | 
50 | O=c1c2ccccc2nc(SCc2ccc([N+](=O)[O-])cc2)n1CCCO | active: 2.91 µM | 
51 | CN(NC(=O)c1ccccc1)c1nc2ccccc2nc1C(F)(F)F | active: 4.61 µM | 
52 | CCN(CC)CCC(=O)Nc1cccc2c1C(=O)c1ccccc1C2=O | active: 18.4 µM | 
53 | Cc1ccc(C(=O)NCc2ccc3c(c2)CCO3)cc1C |  | inconclusive: -4.49%
54 | CC(C)c1cc(NC(=O)CSc2nnc(-c3ccccc3F)n2C)on1 | inconclusive: 18.4 µM [cytotoxic, partial curve, poor fit] | 
55 | OCC1OC(n2cnc3c(=S)nc[nH]c32)C(O)C1O (centres undefined) | inconclusive: 5.8 µM [cytotoxic, full curve, poor fit] and inconclusive: 3.26 µM [cytotoxic, partial curve] | 
56 | CCNC(=S)N/N=C(\C)c1cccc(C(F)(F)F)c1 | inconclusive: 18.4 µM [cytotoxic, single point] | 
57 | CSCC[C@H](NC(=O)N1CCn2c1nc1ccccc12)C(=O)N[C@H](Cc1ccccc1)C(=O)O | inconclusive: 25.9 µM [rising, single point] | 
58 | Cc1cccc(N2CN(Cc3ccco3)CNC2=S)c1C | inactive | 
59 | Cn1c(=O)c2cc(NC(=O)NCCc3ccccc3)ccc2n1Cc1ccc(F)cc1 | inactive | 
60 | CCOC(=O)N1Cc2cc3ccccc3nc2C1 | inconclusive: 18.4 µM [cytotoxic, partial curve, poor fit] | 
61 | Cc1cccc(N2CC(C(=O)OCC(=O)Nc3sccc3C(N)=O)CC2=O)c1C (centres undefined) | inactive | 
62 | Cc1ccccc1NC(=O)c1sc2nc(-c3cc4ccccc4oc3=O)[nH]c(=O)c2c1C | inconclusive: 2.59 µM [rising, partial curve] | 
63 | O=c1[nH][nH]c(-c2ccccc2O)c1C(C[N+](=O)[O-])c1ccc(Cl)cc1Cl (centres undefined) | inactive | 
64 | CC(OC(=O)c1ccccn1)C(=O)Nc1ccc(C(F)(F)F)cc1 (centres undefined) | inconclusive: 29.1 µM [rising, single point] | 
65 | CCC(CC)C(=O)Nc1ccc(S(=O)(=O)N2CCC(c3nc4ccccc4s3)CC2)cc1 | inactive | 
66 | Cc1nc(-c2ccc(S(=O)(=O)N3CCN(c4ccccc4F)CC3)cc2)co1 | inconclusive: 29.1 µM [cytotoxic, single point] | 
67 | CCCOc1ccc(C2C(C(=O)c3ccco3)=C(O)C(=O)N2CCCn2ccnc2)cc1OC (centres undefined) | inconclusive: 23.1 µM [rising, partial curve, poor fit] | 
68 | O=C(O)CC12CC3CC(C1)CC(n1ncc(NCc4ccc(F)cc4Cl)c(Cl)c1=O)(C3)C2 | inconclusive: 29.1 µM [rising, single point] | 
69 | CCOCCCNC(=O)CSCc1nc(-c2ccc(SC)cc2)oc1C | inactive | 
